Assay results taken from PubChem BioAssay AID540276 (National Center for Advancing Translational Sciences (NCATS), 2011).
In all, about 300,000 compounds went through this assay and about 5,400 (1.8%) were called active. Inconclusive results, whose numbers are uncertain, are shown with a selection of clear calls. Calls follow the shape of the full dose curve; tested in HEK293 cells. A potency beside an inconclusive call is a rough fit, not a confirmed value.
Potency is read from the fitted curve at half-maximal effect.

Test: qHTS for inhibitors of binding or entry into cells for Marburg Virus
Details: Marburg virus pseudotyped entry inhibition, cell reporter; series mostly up to 37.8 µM
In the case of COc1ccc(OCCSc2nnc(-c3cccnc3)n2N)cc1, the Potency is reported as “inactive”.
For CCSc1nnc(SCC(=O)N2CCN(C(=O)c3ccco3)CC2)s1, the Potency was inconclusive: 10 µM [activator, partial curve, poor fit].
In the case of CC(C)(C)N(Cc1ccccc1)C(=O)COC(=O)C1CCCCC1, the Potency is reported as inconclusive: 0.794 µM [activator, single point].
In the case of c1ccc(-c2nnc(CSc3nncs3)o2)cc1, the Potency is reported as “inactive”.
In the case of O=C1/C(=N\S(=O)(=O)c2cccs2)C([n+]2cccc(Cc3ccccc3)c2)=C([O-])c2ccccc21, the Potency is reported as active: 2.82 µM.
In the case of CCN(Cc1ccccc1)C(=O)c1cc2c(s1)-c1c(C)cccc1OC2, the Potency is reported as “inactive”.
With CCOC(=O)C1(Cc2ccccc2)CCCN(Cc2cccc(C(C)=O)c2)C1 (stereo not given) the Potency was inconclusive: 22.4 µM [inhibitor, single point].
For CC(=O)c1cccc(NS(=O)(=O)c2ccc3c(c2)NC(=O)CC(=O)N3)c1, the Potency was inconclusive: 2.82 µM [activator, single point].
In the case of CC(C)(C)S(=O)(=O)c1cnc2c(S(=O)(=O)c3ccccc3)cnn2c1N, the Potency is reported as inconclusive: 3.55 µM [inhibitor, partial curve, poor fit].
For O=C(O)c1cc(-c2ccc(/C=N/NC(=S)Nc3ccccc3)o2)ccc1Cl, the Potency was inconclusive: 11.2 µM [activator, partial curve, poor fit].
For COc1cccc(NC(=O)CN2CCSc3ccccc32)c1, the Potency was inconclusive: 28.2 µM [inhibitor, partial curve, poor fit].
For CC(=O)OCC(=O)[C@@]12OC3(CCCC3)O[C@@H]1C[C@H]1[C@@H]3CCC4=CC(=O)C=C[C@]4(C)[C@@]3(F)[C@@H](O)C[C@@]12C, the Potency was inconclusive: 18.4 µM [inhibitor, partial curve, poor fit].
In the case of CCOc1cc(N2CCOCC2)c(OCC)cc1NC(=O)COC(=O)c1ccccc1C, the Potency is reported as inconclusive: 29.1 µM [activator, single point].
In the case of COc1cccc(-c2nc(-c3ccc4c(c3)NC(=O)CO4)cs2)c1, the Potency is reported as inconclusive: 1.58 µM [inhibitor, single point].
For O=C1c2cccc3cccc(c23)C(=O)N1CCN1CCN(CC(O)COCc2ccc(Cl)cc2)CC1 (stereo not given), the Potency was inconclusive: 12.6 µM [inhibitor, partial curve, poor fit].
For O=C(O)c1cnn(-c2nc(-c3ccc(Cl)c(Cl)c3)cs2)c1C(F)(F)F, the Potency was inconclusive: 3.16 µM [activator, partial curve, poor fit].
For COc1ccc(S(=O)(=O)Nc2cc(C)nn2-c2ccccc2)cc1, the Potency was inconclusive: 0.1 µM [inhibitor, full curve, poor fit].
With O=C(CSc1nc(-c2cccc(F)c2)[nH]c1-c1ccccc1)Nc1ccc2c(c1)OCCO2 the Potency was inconclusive: 22.4 µM [inhibitor, single point].
For CCNC(=O)OCC12CC3CC(CC(C3)C1)C2, the Potency was inconclusive: 0.1 µM [activator, full curve, poor fit].
For Cc1ccc(S(=O)(=O)Nc2ccccc2C(O)c2ccccc2)cc1 (stereo not given), the Potency was inconclusive: 35.5 µM [inhibitor, single point].
For COc1cc(C(=O)N(CCc2ccccc2)C2CC3CCC(C2)N3C)cc(OC)c1OC (stereo not given), the Potency was inconclusive: 14.1 µM [inhibitor, single point].
With Cc1cccc(OCc2ccc(-c3nc(C#N)c(NCc4cccnc4)o3)o2)c1 the Potency was inconclusive: 22.4 µM [inhibitor, single point].
With COc1cccc(C(=O)Cn2c(N3CCOCC3)nc3c2c(=O)n(C)c(=O)n3C)c1 the Potency was inconclusive: 20.6 µM [inhibitor, single point].
With COC(=O)c1cc(S(=O)(=O)C(C)C)c(S(C)=O)s1 (stereo not given) the Potency was active: 11.2 µM.
For COc1cc(N=CC2=C(O)c3ccccc3C2=O)cc(OC)c1, the Potency was inconclusive: 5.62 µM [activator, full curve, poor fit].
With COc1cc(S(=O)(=O)Nc2ccc(C)cc2)ccc1NC(=O)c1ccncc1 the Potency was inconclusive: 6.31 µM [activator, single point].
For O=[N+]([O-])c1ccccc1Oc1ccccc1Cl, the Potency was “inactive”.
With Cc1ccccc1S(=O)(=O)N1CCN(C)CC1 the Potency was “inactive”.
In the case of O=C(c1ccccc1)N(Cc1nc2ccccc2c(=O)[nH]1)C1CCCC1, the Potency is reported as “inactive”.
With Cn1c(SCC(=O)Nc2ccc(N3CCOCC3)cc2)nnc1-c1ccccc1 the Potency was inconclusive: 6.51 µM [activator, full curve, poor fit].
With CC(=O)N1CCN(C2=NC(=O)C(=C3CCCCC3)S2)CC1 the Potency was inconclusive: 10 µM [activator, single point].
In the case of Fc1cccc(Cn2cc(C(=S)N3CCOCC3)c3ccccc32)c1, the Potency is reported as “inactive”.
In the case of COc1ccc(-n2c(N)c(C(=O)Nc3c(C)n(C)n(-c4ccccc4)c3=O)c3nc4ccccc4nc32)cc1, the Potency is reported as “inactive”.
For CC(C)=NOc1nc(N(C)C)nc(N(C)C)n1, the Potency was inconclusive: 4.47 µM [inhibitor, partial curve, poor fit].
With Cc1cc(N/N=C/c2ccccc2O)nc(N2CCOCC2)n1 the Potency was inconclusive: 12.6 µM [inhibitor, partial curve, poor fit].
In the case of CCN(C(=O)c1cc2c(C)nc3ccccc3c2o1)c1cc(Cl)ccc1OC, the Potency is reported as active: 12.6 µM.
In the case of COc1ccc(-c2nc(CNS(=O)(=O)c3ccc(Br)cc3)cs2)cc1, the Potency is reported as “inactive”.
With CC1CN(S(=O)(=O)c2ccc(NC(=O)c3cc(-c4ccccc4O)n[nH]3)cc2)CC(C)O1 (stereo not given) the Potency was active: 11.6 µM.
With Clc1ccc(OCCn2cnc3ccccc32)cc1 the Potency was “inactive”.
For CCN1CCS/C1=C/C=C/C1=[N+](CC)CCS1, the Potency was active: 2.51 µM.
With COc1ccccc1C(=O)Nc1nc(-c2cccs2)c(NC(C)=O)s1 the Potency was “inactive”.
In the case of COC(=O)c1ccc(C2c3c(-c4ccccc4O)n[nH]c3C(=O)N2Cc2ccncc2)cc1 (stereo not given), the Potency is reported as “inactive”.
With COc1ccc(/C=N/NC(=O)C2COc3ccccc3O2)cc1OC (stereo not given) the Potency was inconclusive: 35.5 µM [activator, single point].
With COc1ccc(S(=O)(=O)N2CCCCCC2)cc1NC(=O)Cc1cc(OC)c(OC)c(OC)c1 the Potency was inconclusive: 0.794 µM [activator, full curve, poor fit].
In the case of COC(=O)c1cccc(NC(=O)NC(=O)c2ccccc2Cl)c1, the Potency is reported as inconclusive: 3.55 µM [inhibitor, full curve, poor fit].
In the case of Nn1c(SCCOc2ccccc2)nnc1-c1cccnc1, the Potency is reported as “inactive”.
With Cc1ccc(NS(=O)(=O)c2ccc(NC(=O)c3cccc(NC(=O)C(C)C)c3)cc2)cc1 the Potency was active: 12.6 µM.
In the case of CC(C)Cn1c(N)c(/C=N/NC(=O)c2ccc(Cl)cc2)c(=O)n(C)c1=O, the Potency is reported as “inactive”.
With O=C(Nc1ccccc1)c1nnn(Cc2ccccc2)c1NC(=O)C(F)(F)F the Potency was inconclusive: 8.2 µM [activator, partial curve].
With O=C(NCc1ccco1)C(c1ccccc1)N(Cc1cccnc1)C(=O)Cn1nnc2ccccc21 (stereo not given) the Potency was “inactive”.
In the case of S=C1SCN(Cc2cccnc2)CN1Cc1cccnc1, the Potency is reported as inconclusive: 11.2 µM [inhibitor, single point].
For Cc1ccc2nc(NC(=O)c3cccc(-c4cc5ccccc5oc4=O)c3)sc2c1, the Potency was inconclusive: 23.1 µM [inhibitor, single point].
In the case of COc1ccccc1N1CCN(C(c2ccc(Cl)cc2)c2nnnn2C(C)(C)C)CC1 (stereo not given), the Potency is reported as inconclusive: 22.4 µM [inhibitor, single point].
In the case of CC1Cc2ccccc2N1C(=O)CSc1nnc(-c2ccccc2)c(-c2ccccc2)n1 (stereo not given), the Potency is reported as inconclusive: 13 µM [inhibitor, partial curve, poor fit].
In the case of Cc1ccc(-n2nnnc2SCn2nnc3ccccc3c2=O)cc1, the Potency is reported as “inactive”.
In the case of O=C(NCc1ccc(Cl)cc1)c1ccc(OCC2CCCO2)cc1 (stereo not given), the Potency is reported as “inactive”.
With O=C(CN1C(=O)NC2(CCc3ccccc32)C1=O)NCCc1ccccc1 (stereo not given) the Potency was inconclusive: 5.62 µM [inhibitor, single point].
For O=C(N/N=C\c1cccnc1)C1c2ccccc2Oc2ccccc21, the Potency was “inactive”.
For O=C(Cc1ccccc1F)Nc1ccc(Cl)nc1, the Potency was inconclusive: 3.66 µM [activator, full curve].
In the case of O=C(Nc1ccc(N2CCN(C(=O)c3ccco3)CC2)cc1)c1cccc(F)c1, the Potency is reported as “inactive”.
With CC(C)(C)NC(=O)NC(=O)CSc1n[nH]c(-c2ccccc2Br)n1 the Potency was inconclusive: 0.891 µM [inhibitor, full curve, poor fit].
For O=C(O)CCc1ccc(-c2ccc(F)cc2)n1NC(=O)c1ccco1, the Potency was inconclusive: 5.62 µM [activator, single point].
For CCCc1c(O)c2ccccc2[nH]c1=O, the Potency was “inactive”.
In the case of C[C@H](Cc1ccccc1)Nc1ncnc2c1ncn2[C@@H]1O[C@H](CO)[C@@H](O)[C@H]1O, the Potency is reported as inconclusive: 6.51 µM [activator, single point].
In the case of O=C(c1ccco1)N1CCn2c1nc1ccccc12, the Potency is reported as inconclusive: 7.08 µM [activator, partial curve].
For CCc1ccc(-n2c(=O)c3sc4ccccc4c3n(CC(=O)N3CCCC3)c2=O)cc1, the Potency was “inactive”.
For COc1ccccc1N1CCN(C(=O)c2oc3ccccc3c2C)CC1, the Potency was inconclusive: 16.4 µM [inhibitor, single point].
For S=c1[nH]nc(-c2ccccn2)n1/N=C/c1ccc(-c2ccccc2Cl)o1, the Potency was inconclusive: 2.82 µM [inhibitor, full curve, poor fit].
With O=c1c(Cl)c(Cl)cnn1-c1ccccc1 the Potency was active: 25.9 µM.
In the case of O=C(COC(=O)c1cccs1)c1ccc2c(c1)OCCO2, the Potency is reported as inconclusive: 5.8 µM [inhibitor, partial curve].
